# Measurements as given in PubChem BioAssay AID540256 (National Center for Advancing Translational Sciences (NCATS), 2011).
# The whole screen tested about 300,000 compounds, of which about 3,700 (1.2%) were called active. This list was built around the results that the source calls inconclusive (neither active nor inactive); the mix of calls is not that of the screen. The call rests on the fitted dose curve; tested in HEK293 cells. Where the call is inconclusive, the potency comes from a doubtful curve fit.
# Test: qHTS for Inhibitors of binding or entry into cells for Lassa Virus; further: nearly all actives have a fitted effect of over 50% in size
# Details: Lassa virus pseudotype entry inhibition, cell reporter; activity change, negative = inhibition: at 37.9 µM (top of the series) unless noted
# On the % scale 0 is the no-effect control and ±100 the full control effect; potency means the concentration at half of the fitted maximal effect.
SMILES,Potency,"activity change, negative = inhibition"
CCOC(=O)c1cc(CC)sc1NC(=O)c1cc([N+](=O)[O-])ccc1N1CCOCC1,"inconclusive: 0.231 µM [inhibitor, partial curve, poor fit]",
Cn1cc(CN2C[C@]3(C)C[C@H]2CC(C)(C)C3)c(-c2ccc3c(c2)OCCO3)n1,"inconclusive: 6.31 µM [inhibitor, full curve]",
Nc1ccccc1/C=N\N=C/c1ccccc1N,"inconclusive: 12.6 µM [inhibitor, partial curve, poor fit]",
Cc1ccccc1-c1nn(-c2ccc(F)cc2F)cc1CNC1CC1,,inactive: 17.2%
Cc1ccc(NC(=O)c2c3c(nc4ccccc24)CCC3)cc1S(=O)(=O)N(C)C,,inactive: 8.28% [at 46.1 µM]
COC(=O)c1sccc1NC(=O)Cc1ccc(OC)cc1,"inconclusive: 10 µM [inhibitor, partial curve]",
Cc1ccc(S(=O)(=O)N2CCCCC2)cc1NC(=O)CNc1ccc(C(F)(F)F)cc1,"inconclusive: 35.5 µM [inhibitor, single point]",
CC(C)Oc1cc(C(=O)NC2CCCCC2)c2ccccc2n1,,inactive: -9.07% [at 46.1 µM]
CC(C)c1ccc(NC(=O)COC(=O)c2c[nH]c(=O)[nH]c2=O)cc1,"inconclusive: 0.282 µM [inhibitor, full curve, poor fit]",
CC(C)(C)c1ccc(C(=O)Nc2ccc(Cl)cc2)cc1,"inconclusive: 3.98 µM [inhibitor, partial curve]",
O=C(c1cnccn1)N1CCCC(N2CCN(c3cccc(Cl)c3)CC2)C1 (centres undefined),,inactive: 4.17%
COc1ccc(NC(=S)N(CCCN2CCOCC2)Cc2cn(C)c3ccccc23)cc1OC,"inconclusive: 0.891 µM [activator, single point]",
Cc1ccc(C(=O)Nc2ccc(N3CCCC3)cc2)cc1,,inactive: -22.5%
O=C1CCN=C(Nc2ccc(F)cc2)N1Cc1ccccc1,,inactive: 6.75%
COc1ccc(C(=O)Nn2c(SCC(=O)NCC3CCCO3)nc3ccccc3c2=O)cc1 (centres undefined),active: 7.3 µM,
COc1ccc(OC)c(NC(=O)C(=O)c2cn(CC(=O)N3CCCC3)c3ccccc23)c1,,inactive: -21.3%
c1csc(-c2cn3ccc4ccccc4c3n2)c1,"inconclusive: 35.5 µM [inhibitor, single point]",
O=C(Nc1ccccc1)c1cnc(-c2ccccc2)nc1-c1ccccc1,"inconclusive: 29.1 µM [inhibitor, single point]",
CN1CCN(C(CNC(=O)C(=O)Nc2ccc(Cl)cc2)c2cccnc2)CC1 (centres undefined),"inconclusive: 25.1 µM [inhibitor, single point]",
O=[N+]([O-])c1ccccc1N(S(=O)(=O)c1ccccc1)S(=O)(=O)c1ccccc1,"inconclusive: 0.355 µM [inhibitor, full curve, poor fit]",
CCOCCCNC(=O)c1c[nH]c2ccc(S(=O)(=O)N(C)c3ccc(Cl)cc3F)cc2c1=O,"inconclusive: 7.94 µM [inhibitor, partial curve, poor fit]",
COc1ccccc1NC(=O)COC(=O)c1ccc2c(c1)nc(C)n2-c1ccccc1,"inconclusive: 0.562 µM [inhibitor, single point]",
CN(CC(=O)NCCc1ccccc1)Cc1ccco1,,inactive: 15.8% [at 46.1 µM]

# Look-ups from the results shown.
# In Potency, `CCOC(=O)c1cc(CC)sc1NC(=O)c1cc([N+](=O)[O-])ccc1N1CCOCC1` has inconclusive: 0.231 µM [inhibitor, partial curve, poor fit]
# In Potency, `c1csc(-c2cn3ccc4ccccc4c3n2)c1` has inconclusive: 35.5 µM [inhibitor, single point]
# In Potency, `COc1ccc(NC(=S)N(CCCN2CCOCC2)Cc2cn(C)c3ccccc23)cc1OC` has inconclusive: 0.891 µM [activator, single point]
# In activity change, negative = inhibition, `Cc1ccc(NC(=O)c2c3c(nc4ccccc24)CCC3)cc1S(=O)(=O)N(C)C` has inactive: 8.28% [at 46.1 µM]

# (further entries)

SMILES,Potency,"activity change, negative = inhibition"
O=C(Nc1ccc(NC(=O)C2CCCCC2)nc1)c1ccco1,"inconclusive: 11.2 µM [activator, single point]",
Cc1[nH]c2ccccc2c1/C=N/NC(=O)c1cccc(Br)c1,,inactive: -18.9% [at 46.1 µM]
Cc1nn(CCO)c2nc(-c3cccs3)cc(C(F)(F)F)c12,"inconclusive: 0.891 µM [activator, single point]",
CCOC(=O)c1ccc(NC(=O)c2c(NCc3sccc3C)sc3c2CCC(C)C3)cc1 (centres undefined),"inconclusive: 6.31 µM [inhibitor, single point]",
N#CC1=C(N)NC(SCC(=O)c2ccc(Br)cc2)=C(C#N)C12CCCCC2,"inconclusive: 11.6 µM [inhibitor, partial curve, poor fit]",
COc1ccc(-n2ncc3c(NCCCN4CCOCC4)ncnc32)cc1,"inconclusive: 0.366 µM [activator, full curve]",
COc1ccc2nc(Nc3nc(CSc4ccc(C)cc4)cc(=O)[nH]3)nc(C)c2c1,,inactive: 8.26%
COc1ccccc1Nc1nc(NCC2CCCO2)c2ccccc2n1 (centres undefined),"inconclusive: 35.5 µM [inhibitor, single point]",
O=Cc1ccc(OC(=O)c2cc(Cl)nc3ccccc23)cc1,"inconclusive: 4.61 µM [inhibitor, partial curve, poor fit]",
O=C(O)C1C2CCC(O2)C1C(=O)NC1CCCCC1 (centres undefined),"inconclusive: 22.4 µM [inhibitor, single point]",
COC(=O)c1ccc(N2C(=O)CC(N3CCOCC3)C2=O)cc1 (centres undefined),,inactive: 3.25%
O=C(CC1(O)C(=O)Nc2ccccc21)c1ccc(-n2cnnn2)cc1 (centres undefined),,inactive: -4.68% [at 46.1 µM]
CC(=O)Nc1cccc(NS(=O)(=O)c2c(C)noc2C)c1,,inactive: 5.93%
CCOc1ccc(CNC(=O)c2ccc3c(c2)c(C)c(C)n3C)cc1,"inconclusive: 11.2 µM [inhibitor, partial curve, poor fit]",
Cc1ccc(Sc2ccc(N3CCCC(C(=O)Nc4ccc(F)c(Cl)c4)C3)nn2)cc1 (centres undefined),"inconclusive: 2.51 µM [inhibitor, partial curve]",
Cc1ccc(C(=O)CNc2nc3c(c(=O)[nH]c(=O)n3C)n2Cc2ccccc2)cc1,,inactive: 9.38%
O=c1c2ccccc2nc(/C=C/c2cccc(Br)c2)n1CCCO,"inconclusive: 4.47 µM [inhibitor, partial curve]",
CCOC(=O)/C=C1/SCC(=O)N1CC(=O)Nc1ccc2c(c1)CCC2,"inconclusive: 12.6 µM [inhibitor, partial curve, poor fit]",
Cc1ccc2nc3c(cc(C#N)c(=O)n3-c3nnc(SCc4ccc(F)cc4)s3)c(=O)n2c1,"inconclusive: 12.6 µM [activator, single point]",
CCSc1nc(N)c(C#N)c(-c2ccccc2Cl)c1C#N,,inactive: -12.5%
CCCCOc1cccc(C(=O)Nc2sc3c(c2C(=O)OCC)CCCC3)c1,,inactive: -6.39% [at 46.1 µM]
C=CCNC(=O)N1CCCC(C(=O)c2cccc(OC(C)C)c2)C1 (centres undefined),"inconclusive: 35.5 µM [inhibitor, single point]",
O=C1OC(c2ccccc2)=NC12CC2c1ccc(Cl)cc1 (centres undefined),"inconclusive: 14.1 µM [inhibitor, partial curve, poor fit]",

SMILES,Potency,"activity change, negative = inhibition"
O=C1CC(SC(=Nc2ccccc2)Nc2ccccc2)C(=O)N1c1cccc(Cl)c1 (centres undefined),"inconclusive: 11.2 µM [inhibitor, partial curve, poor fit]",
COc1ccc(OC)c(NS(=O)(=O)c2ccc(NC(=O)c3ccc(NS(C)(=O)=O)cc3)cc2)c1,,inactive: -14.7%
COc1ccc(OC)c(C2C(C(=O)Nc3ccc(C)cc3C)=C(C)Nc3c(C(=O)Nc4ccc(F)cc4)cnn32)c1 (centres undefined),,inactive: 8.35% [at 46.1 µM]
COc1ccc(-c2cc(=O)n(CCC#N)[nH]2)cc1,,inactive: -7.89%
COc1ccc(N(C)S(=O)(=O)c2cccc(C(=O)NC3CCCC3)c2)cc1,"inconclusive: 10 µM [inhibitor, partial curve, poor fit]",
COC(=O)NC(CCc1ccccc1)C(C(=O)OC)C(=O)OC (centres undefined),"inconclusive: 0.531 µM [inhibitor, partial curve, poor fit]",
CCOc1ccccc1CNC(=O)CSc1n[nH]c(-c2ccccc2)n1,"inconclusive: 3.16 µM [inhibitor, partial curve, poor fit]",
Cc1cc(C)c2nc(N(CCCN(C)C)C(=O)C3=COCCO3)sc2c1,"inconclusive: 12.6 µM [inhibitor, single point]",
CCc1noc(C)c1C(=O)Oc1ccc(N(C)S(=O)(=O)c2ccc(C)c(C)c2)cc1,"inconclusive: 12.6 µM [inhibitor, partial curve]",
Cc1cccc(C(=O)NCCc2nc3ccccc3n2Cc2ccccc2Cl)c1,"inconclusive: 5.62 µM [inhibitor, single point]",
COc1ccc2c(c1)c(C(O)CN1CCC(Cc3ccccc3)CC1)c(C)n2C (centres undefined),"inconclusive: 25.1 µM [inhibitor, single point]",
CCCCNC(=S)N1CCn2cccc2C1c1ccc(F)cc1 (centres undefined),active: 12.6 µM,
COc1cccc(CNC(=O)N2CCc3c(sc4c3CCCC4)C2c2ccc(F)cc2)c1 (centres undefined),"inconclusive: 35.5 µM [inhibitor, single point]",
Cc1ccccc1OCCCCCCN1CCNCC1,,inactive: -6.75%
CCOC(=O)N1CCN(S(=O)(=O)c2ccc(C)cc2)C1c1ccc(OC)cc1 (centres undefined),active: 23.1 µM,
O=C(CNc1ccc2ccccc2c1)N/N=C/c1ccccn1,"inconclusive: 39.8 µM [inhibitor, partial curve, poor fit]",
Clc1cccc(CN2COc3c(cc(Cl)c4cccnc34)C2)c1,"inconclusive: 8.2 µM [inhibitor, partial curve, poor fit]",
O=C1NN=C(c2ccccc2)CC1c1ccc(Cl)cc1Cl (centres undefined),"inconclusive: 35.5 µM [inhibitor, single point]",
CC(C)COc1ccc(/C(=N/O)c2ccccc2)cc1,,inactive: -22.6%
COc1ccc(Nc2cc(C)c3cc(NC(=O)c4ccccc4Cl)ccc3n2)cc1,"inconclusive: 20 µM [inhibitor, single point]",
Fc1ccc(-c2noc3ncnc(NCCc4ccc(Cl)cc4)c23)cc1,"inconclusive: 7.08 µM [activator, full curve, poor fit]",
CCOC(=O)Cn1c(S(=O)(=O)Cc2ccc(F)cc2)nc(-c2ccccc2)c1-c1ccccc1,active: 2.59 µM,
CC(C)c1ccc2[nH]c(O)c(N=NC(=O)c3cccc(S(=O)(=O)N4CCCCC4)c3)c2c1,"inconclusive: 5.01 µM [inhibitor, full curve, poor fit]",
